Test results reported in the supplement of paper PMC10849652.
The other results are listed elsewhere or left out.

Protein sequences, listed by entry. Tags and fused reporters are not part of them. Lines headed by an entry give the natural chain unless they say otherwise; changes in a name come on top.
UniProt Q9NSA3: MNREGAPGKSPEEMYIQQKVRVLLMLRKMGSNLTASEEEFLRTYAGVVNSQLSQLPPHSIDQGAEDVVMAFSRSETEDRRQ
UniProt Q14894: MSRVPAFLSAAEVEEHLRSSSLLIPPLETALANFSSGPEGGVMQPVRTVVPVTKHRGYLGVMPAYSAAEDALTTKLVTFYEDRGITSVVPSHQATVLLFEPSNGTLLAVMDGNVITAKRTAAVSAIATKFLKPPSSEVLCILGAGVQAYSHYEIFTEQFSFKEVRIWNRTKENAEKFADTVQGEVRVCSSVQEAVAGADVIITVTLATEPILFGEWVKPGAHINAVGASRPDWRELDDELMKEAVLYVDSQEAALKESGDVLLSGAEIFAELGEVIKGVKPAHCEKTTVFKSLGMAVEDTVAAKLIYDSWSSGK
UniProt O60931: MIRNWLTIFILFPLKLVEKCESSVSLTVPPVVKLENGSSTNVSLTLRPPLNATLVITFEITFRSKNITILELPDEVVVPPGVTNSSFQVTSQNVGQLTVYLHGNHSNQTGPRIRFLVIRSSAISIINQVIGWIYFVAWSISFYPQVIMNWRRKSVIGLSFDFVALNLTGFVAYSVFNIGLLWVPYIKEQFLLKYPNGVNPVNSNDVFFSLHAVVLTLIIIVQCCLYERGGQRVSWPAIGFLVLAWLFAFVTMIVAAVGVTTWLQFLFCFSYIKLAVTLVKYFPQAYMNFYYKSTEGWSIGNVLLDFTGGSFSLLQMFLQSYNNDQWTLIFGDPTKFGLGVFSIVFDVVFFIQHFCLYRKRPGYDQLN
UniProt Q9Y600: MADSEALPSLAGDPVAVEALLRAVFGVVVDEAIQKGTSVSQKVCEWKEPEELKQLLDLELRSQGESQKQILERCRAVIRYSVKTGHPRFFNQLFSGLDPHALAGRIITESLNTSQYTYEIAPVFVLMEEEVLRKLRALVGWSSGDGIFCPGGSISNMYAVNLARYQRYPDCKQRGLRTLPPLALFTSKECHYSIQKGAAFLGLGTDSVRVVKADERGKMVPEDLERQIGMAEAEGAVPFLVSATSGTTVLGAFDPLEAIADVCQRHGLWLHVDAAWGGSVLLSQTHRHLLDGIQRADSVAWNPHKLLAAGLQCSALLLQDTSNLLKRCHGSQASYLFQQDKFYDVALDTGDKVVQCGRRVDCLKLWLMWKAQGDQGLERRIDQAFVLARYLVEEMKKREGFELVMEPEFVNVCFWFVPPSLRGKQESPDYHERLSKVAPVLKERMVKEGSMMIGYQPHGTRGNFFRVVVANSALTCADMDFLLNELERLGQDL

Columns and labels:
Assay in all cases: log2 fold change, soluble protein after heating vs DMSO (PISA); higher = thermal stabilisation; K562 lysate, 10 uM; active = over 0.2 and 3.5 SD of the protein, either way, in both replicates (recomputed)
dasatinib = compound: Cc1nc(Nc2ncc(C(=O)Nc3c(C)cccc3Cl)s2)cc(N2CCN(CCO)CC2)n1 [dasatinib]
In short: (§1)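 K562 pellets were dounce-homogenised in PBS pH 7.4 with 1 mM MgCl2, and the crude extract at 1 mg/mL protein was treated with 10 μM compound for 30 min. Aliquots were heated for 3 min across 48°C-58°C, pooled, and brought to 0.5% NP-40 at 4°C; soluble protein was the supernatant after 21,000xg for 90 min. Soluble protein was quantified by TMTpro 16plex LC-MS/MS with channel sums equalised, and reported as log2 fold change in thermal stability against DMSO controls, with values from duplicates.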

[1] = compound: Cn1cc(-c2ccc3c(c2)CCN3C(=O)Cc2cccc(C(F)(F)F)c2)c2c(N)ncnc21
In short: as §1

[2] = compound: NC1(c2ccc(-c3nc4ccn5c(=O)[nH]nc5c4cc3-c3ccccc3)cc2)CCC1
In short: as §1

vorinostat = compound: O=C(CCCCCCC(=O)Nc1ccccc1)NO [vorinostat]
In short: as §1

silmitasertib = compound: O=C(O)c1ccc2c(c1)nc(Nc1cccc(Cl)c1)c1ccncc12 [silmitasertib]
In short: as §1

quisinostat = compound: Cn1cc(CNCC2CCN(c3ncc(C(=O)NO)cn3)CC2)c2ccccc21 [quisinostat]
In short: as §1

[3] = compound: NC(=O)Nc1cc(-c2cccc(F)c2)sc1C(=O)N[C@H]1CCCNC1
In short: as §1

[4] = compound: NC(=O)c1cnc(N[C@@H]2CCCC[C@@H]2N)nc1Nc1cccc(-n2nccn2)c1
In short: as §1

[5] = compound: NCC(=O)Nc1ccc(-n2nc(C(F)(F)F)cc2-c2ccc3c(ccc4ccccc43)c2)cc1
In short: as §1

[6] = compound: O=C1NC(=O)C(c2cnc3ccccn23)=C1c1cn2c3c(cc(F)cc13)CN(C(=O)N1CCCCC1)CC2
In short: as §1

entospletinib = compound: c1cn2cc(-c3ccc4cn[nH]c4c3)nc(Nc3ccc(N4CCOCC4)cc3)c2n1 [entospletinib]
In short: as §1

Measured: log2 fold change

CTNNBIP1 (UniProt Q9NSA3)
inactive: dasatinib -0.008 | [1] 0.167 | [2] -0.052 | vorinostat 0.072 | silmitasertib -0.127

CRYM (UniProt Q14894)
inactive: quisinostat -0.063 | [3] 0.033 | [4] 0.025 | [5] 0.006 | [6] -0.113 | entospletinib -0.009

CTNS isoform 2 (UniProt O60931)
inactive: dasatinib 0.122 | [1] -0.013 | quisinostat -0.154 | [3] 0.002 | [5] -0.099 | [6] 0.02 | entospletinib 0.073

CSAD isoform 3 (UniProt Q9Y600)
inactive: quisinostat -0.035 | [3] -0.001 | [2] -0.153 | vorinostat 0.031 | silmitasertib 0.075 | [6] 0.039
